Results taken from patent US7514207B2, “Methods of screening for compounds that decrease phosphorylation of merlin and may be useful in cancer treatment” (Massachusetts Institute of Technology, priority 2001, dated 2009).

System: merlin kinase
Assay: In-vitro merlin kinase assay with kinase inhibitors
Type: biochemical
Details: inhibition of the activity of the merlin kinase

CN[C@@H]1C[C@H]2O[C@@](C)([C@@H]1OC)n1c3ccccc3c3c4c(c5c6ccccc6n2c5c31)C(=O)NC4 [Staurosporine]
concentration range inhibiting the merlin kinase: lower nM range
